Not every detail of the peptide structures is certain; ends, links or a residue may be inferred.
Legend:
Assay in all cases: MIC of composition comprising liposomes
[1] = system: S. aureus ATCC 29213
[2] = system: C. albicans ATCC 10231
[3] = system: B. cepacia ATCC 25416
[4] = system: E. coli ATCC 25922
[5] = system: K. pneumoniae ATCC 10031
[6] = system: S. aureus (MRSA) ATCC 33591
[7] = system: P. aeruginosa ATCC 27853

## CCCCCCCCNC(=O)[C@H](CCCNC(=N)N)NC(=O)[C@H](CCCNC(=N)N)NC(=O)CCCCCCC [Octanoyl-Arg-Arg-NH-octyl]
[1]
  MIC: ≦3.9 μg/ml
[2]
  MIC: ≦31 μg/ml
[3]
  MIC: ≦125 μg/ml
[4]
  MIC: ≦3.9 μg/ml
[5]
  MIC: ≦3.9 μg/ml
[6]
  MIC: ≦2 μg/ml
[7]
  MIC: ≦2 μg/ml
